Our source for the binding values is publication PMC12697865, “ZFPL1 Promotes Colorectal Cancer Progression by Stabilizing ASS1 to Drive the Urea Cycle and M2 Macrophage‐Mediated Metastatic Colonization” (Advanced Science, 2025).

Sequences of proteins named here, by UniProt entry; tags and fusion partners are left off. A change or cut given only in a name is not applied to a line headed by its entry.
UniProt P00966: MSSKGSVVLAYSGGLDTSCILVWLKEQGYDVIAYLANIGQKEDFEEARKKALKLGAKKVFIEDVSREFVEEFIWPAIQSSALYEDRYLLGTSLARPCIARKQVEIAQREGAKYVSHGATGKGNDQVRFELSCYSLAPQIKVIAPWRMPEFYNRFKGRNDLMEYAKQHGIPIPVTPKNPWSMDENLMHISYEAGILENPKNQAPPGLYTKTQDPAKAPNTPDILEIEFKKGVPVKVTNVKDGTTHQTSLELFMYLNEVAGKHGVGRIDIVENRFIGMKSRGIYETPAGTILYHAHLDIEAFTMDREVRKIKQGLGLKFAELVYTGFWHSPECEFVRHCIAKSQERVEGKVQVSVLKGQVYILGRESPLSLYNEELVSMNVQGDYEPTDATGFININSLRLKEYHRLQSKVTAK

Results are given in words; binding and its absence hold for the method and conditions named. For some assays here: A result given as binding can be weak or reduced; the word gives no strength. For some assays here: In cells and extracts the contact can be indirect. For some assays here: Tags and fused reporters may be left off the sequences shown.

Assay [1] addresses T1, Fluorescently labelled ZFPL1 (MST) (human) (UniProt O95159).
T1 sequence (chain, fluorescent label (dye and site not stated)): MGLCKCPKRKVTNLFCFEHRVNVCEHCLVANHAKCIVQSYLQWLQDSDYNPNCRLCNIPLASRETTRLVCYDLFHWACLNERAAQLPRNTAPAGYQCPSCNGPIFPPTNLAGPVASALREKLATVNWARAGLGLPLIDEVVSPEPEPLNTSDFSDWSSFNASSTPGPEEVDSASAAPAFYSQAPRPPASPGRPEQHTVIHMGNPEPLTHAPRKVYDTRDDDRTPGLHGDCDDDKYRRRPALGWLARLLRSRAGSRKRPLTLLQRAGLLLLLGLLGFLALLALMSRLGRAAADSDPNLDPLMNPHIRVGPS
The assay can be described thus: MST; fluorescently labelled ZFPL1 mixed with varying concentrations of ASS1; Monolith NT.115; buffer pH 7.4, 1 mM MgCl2, 3 mM KCl, 150 mM NaCl, 0.05% Tween-20; also with Salvianolic acid B added; both purified.

The target of assay [2] is T2, Flag-tagged ZFPL1-WT (zinc finger protein-like 1) (human) (UniProt O95159).
T2 sequence: T1 sequence (chain, fluorescent label (dye and site not stated))
The assay is described as follows: co-IP; HEK293T cells transfected with His-tagged ASS1 (WT or Mut) and Flag-tagged ZFPL1 (WT or Mut); IP kit, immunoblot.

As to “ASS1-K57^mut (MST) (from UniProt P00966)”, the binding result in assay [1] is “binds”.

As for “His-tagged ASS1-Mut (mutated in the predicted ZFPL1-interaction region) (from UniProt P00966)”, the binding entry in assay [2] was “no binding”.
